From US9593096B2, “α7 nicotinic acetylcholine receptor modulators and uses thereof-III” (Merck Sharp & Dohme Corp., priority 2013, dated 2017)
At least one structure is not confirmed: it was looked up by name or label, or the drawing left a doubt.

Chains of the proteins cited; added tags and fusions are not shown. Residues count along the entry.
UniProt Q05941, 23-502: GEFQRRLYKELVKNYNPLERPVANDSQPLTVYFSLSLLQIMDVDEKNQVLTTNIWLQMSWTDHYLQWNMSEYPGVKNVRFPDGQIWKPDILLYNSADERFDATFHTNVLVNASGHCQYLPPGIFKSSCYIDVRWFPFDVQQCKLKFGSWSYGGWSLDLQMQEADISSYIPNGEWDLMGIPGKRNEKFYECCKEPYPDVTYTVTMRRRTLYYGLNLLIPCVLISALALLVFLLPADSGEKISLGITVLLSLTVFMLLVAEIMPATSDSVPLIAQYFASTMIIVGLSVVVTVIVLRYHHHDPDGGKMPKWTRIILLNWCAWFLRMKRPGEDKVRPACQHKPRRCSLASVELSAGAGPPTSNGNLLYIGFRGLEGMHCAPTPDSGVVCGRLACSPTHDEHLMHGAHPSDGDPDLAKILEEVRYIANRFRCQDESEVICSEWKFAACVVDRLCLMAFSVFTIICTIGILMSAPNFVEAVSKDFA

Biological target: T1, rat α7 nAChRs (Rattus norvegicus, UniProt Q05941)
T1 construct: expressed in transfected cells; host or cells: GH4C1 (rat pituitary cell line) stably expressing α7 nAChR
Experiment: Automated planar patch clamp (Patchliner) for α7 nAChR positive allosteric modulation
Format: cell-based
Set-up: key: I: Type 1 predominately affects the peak current; Type II modulators affect the peak current and also delay the desensitization of the receptor
Settings: modulator type based on the electrophysiology trace
Procedure: Compounds of the invention may be evaluated by electrophysiology using a Patchliner® (Nanion Technologies GmbH, Germany), an automated planar patch-clamp platform of medium throughput was used as a first step in electrophysiological assessment of α7 nAChR positive allosteric modulators (PAMs).
Briefly, intracellular (KCl—50 mM, NaCl—10 mM, KF—60 mM, EGTA—20 mM, HEPES—10 mM, pH—7.2, 285 mOsmol) and extracellular (NaCl—140 mM, KCl—4 mM, CaCl2-2 mM, MgCl2—1 mM, HEPES—10 mM, D-Glucose—5 mM, pH—7.4, 298 mOsmol) solutions were automatically pipetted onto NPC-16 chip (medium resistance ˜2.5-2.6 MΩ). Suspension of GH4C1 cells expressing rat α7 nAChRs was introduced in 4 wells of a medium resistance chip and suction was applied to attract cells in the holes. The extracellular solution was subsequently exchanged to high calcium solution (NaCl—80 mM, KCl—3 mM, CaCl2—45 mM, HEPES—10 mM, pH—7.4, 298 mOsmol) followed by gigaohm seal formation and obtaining whole-cell configuration. The rest of protocol was carried out in the high-calcium recording solution. Holding potential was −70 mV throughout the protocol. […]
Amplitude of the responses was measured in HEKA Patchmaster software (HEKA Elektronik, Germany) and percentage of potentiation calculated. […]
Compounds shown in Table 1 were evaluated by automated planar patch clamp on the Patchliner® as described in Example P2.1. […]

CCn1cc(C(=O)Nc2ccc(C(F)(F)F)nc2)c2cc(F)ccc21 [Example 3, 1-ethyl-5-fluoro-N-[6-(trifluoromethyl)pyridin-3-yl]-1H-indole-3-carboxamide]
Type I or Type II: II
